Data taken from the supplement of paper PMC10849652.
Some of the results follow.

Protein sequences, listed by entry. Tags and fused reporters are not part of them. Lines headed by an entry give the natural chain unless they say otherwise; changes in a name come on top.
UniProt O75915: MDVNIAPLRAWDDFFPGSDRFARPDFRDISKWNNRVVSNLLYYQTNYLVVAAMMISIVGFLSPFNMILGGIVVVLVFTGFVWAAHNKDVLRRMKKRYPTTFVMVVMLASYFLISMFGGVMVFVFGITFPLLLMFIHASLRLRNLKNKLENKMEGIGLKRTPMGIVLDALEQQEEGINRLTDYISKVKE
UniProt Q9NVT9: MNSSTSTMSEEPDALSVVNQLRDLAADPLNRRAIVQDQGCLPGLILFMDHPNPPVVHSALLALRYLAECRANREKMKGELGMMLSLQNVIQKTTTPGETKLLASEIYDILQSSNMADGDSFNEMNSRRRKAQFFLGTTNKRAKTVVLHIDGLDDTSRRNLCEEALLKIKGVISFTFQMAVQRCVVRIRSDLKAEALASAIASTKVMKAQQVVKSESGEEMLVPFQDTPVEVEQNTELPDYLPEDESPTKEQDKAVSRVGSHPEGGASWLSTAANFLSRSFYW
UniProt Q9NRW3: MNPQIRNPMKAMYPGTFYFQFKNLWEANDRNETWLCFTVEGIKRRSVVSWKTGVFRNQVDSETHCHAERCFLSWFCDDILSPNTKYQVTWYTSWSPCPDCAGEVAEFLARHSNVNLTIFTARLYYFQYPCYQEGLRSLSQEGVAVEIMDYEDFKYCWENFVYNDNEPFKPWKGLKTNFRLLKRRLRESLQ
UniProt O00189: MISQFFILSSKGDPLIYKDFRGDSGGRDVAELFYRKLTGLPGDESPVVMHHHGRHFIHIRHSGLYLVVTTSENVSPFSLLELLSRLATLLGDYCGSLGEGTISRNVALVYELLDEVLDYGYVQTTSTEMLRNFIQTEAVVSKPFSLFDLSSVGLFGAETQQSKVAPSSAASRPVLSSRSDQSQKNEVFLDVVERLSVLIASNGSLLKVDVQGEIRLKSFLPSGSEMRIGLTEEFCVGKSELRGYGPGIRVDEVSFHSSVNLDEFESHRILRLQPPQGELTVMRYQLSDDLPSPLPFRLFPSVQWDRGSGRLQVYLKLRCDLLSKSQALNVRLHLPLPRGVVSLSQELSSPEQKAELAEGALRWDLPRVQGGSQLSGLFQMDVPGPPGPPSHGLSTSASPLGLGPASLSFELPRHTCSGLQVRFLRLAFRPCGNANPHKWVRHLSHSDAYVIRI
UniProt Q8NFD5, whole entry, looked up: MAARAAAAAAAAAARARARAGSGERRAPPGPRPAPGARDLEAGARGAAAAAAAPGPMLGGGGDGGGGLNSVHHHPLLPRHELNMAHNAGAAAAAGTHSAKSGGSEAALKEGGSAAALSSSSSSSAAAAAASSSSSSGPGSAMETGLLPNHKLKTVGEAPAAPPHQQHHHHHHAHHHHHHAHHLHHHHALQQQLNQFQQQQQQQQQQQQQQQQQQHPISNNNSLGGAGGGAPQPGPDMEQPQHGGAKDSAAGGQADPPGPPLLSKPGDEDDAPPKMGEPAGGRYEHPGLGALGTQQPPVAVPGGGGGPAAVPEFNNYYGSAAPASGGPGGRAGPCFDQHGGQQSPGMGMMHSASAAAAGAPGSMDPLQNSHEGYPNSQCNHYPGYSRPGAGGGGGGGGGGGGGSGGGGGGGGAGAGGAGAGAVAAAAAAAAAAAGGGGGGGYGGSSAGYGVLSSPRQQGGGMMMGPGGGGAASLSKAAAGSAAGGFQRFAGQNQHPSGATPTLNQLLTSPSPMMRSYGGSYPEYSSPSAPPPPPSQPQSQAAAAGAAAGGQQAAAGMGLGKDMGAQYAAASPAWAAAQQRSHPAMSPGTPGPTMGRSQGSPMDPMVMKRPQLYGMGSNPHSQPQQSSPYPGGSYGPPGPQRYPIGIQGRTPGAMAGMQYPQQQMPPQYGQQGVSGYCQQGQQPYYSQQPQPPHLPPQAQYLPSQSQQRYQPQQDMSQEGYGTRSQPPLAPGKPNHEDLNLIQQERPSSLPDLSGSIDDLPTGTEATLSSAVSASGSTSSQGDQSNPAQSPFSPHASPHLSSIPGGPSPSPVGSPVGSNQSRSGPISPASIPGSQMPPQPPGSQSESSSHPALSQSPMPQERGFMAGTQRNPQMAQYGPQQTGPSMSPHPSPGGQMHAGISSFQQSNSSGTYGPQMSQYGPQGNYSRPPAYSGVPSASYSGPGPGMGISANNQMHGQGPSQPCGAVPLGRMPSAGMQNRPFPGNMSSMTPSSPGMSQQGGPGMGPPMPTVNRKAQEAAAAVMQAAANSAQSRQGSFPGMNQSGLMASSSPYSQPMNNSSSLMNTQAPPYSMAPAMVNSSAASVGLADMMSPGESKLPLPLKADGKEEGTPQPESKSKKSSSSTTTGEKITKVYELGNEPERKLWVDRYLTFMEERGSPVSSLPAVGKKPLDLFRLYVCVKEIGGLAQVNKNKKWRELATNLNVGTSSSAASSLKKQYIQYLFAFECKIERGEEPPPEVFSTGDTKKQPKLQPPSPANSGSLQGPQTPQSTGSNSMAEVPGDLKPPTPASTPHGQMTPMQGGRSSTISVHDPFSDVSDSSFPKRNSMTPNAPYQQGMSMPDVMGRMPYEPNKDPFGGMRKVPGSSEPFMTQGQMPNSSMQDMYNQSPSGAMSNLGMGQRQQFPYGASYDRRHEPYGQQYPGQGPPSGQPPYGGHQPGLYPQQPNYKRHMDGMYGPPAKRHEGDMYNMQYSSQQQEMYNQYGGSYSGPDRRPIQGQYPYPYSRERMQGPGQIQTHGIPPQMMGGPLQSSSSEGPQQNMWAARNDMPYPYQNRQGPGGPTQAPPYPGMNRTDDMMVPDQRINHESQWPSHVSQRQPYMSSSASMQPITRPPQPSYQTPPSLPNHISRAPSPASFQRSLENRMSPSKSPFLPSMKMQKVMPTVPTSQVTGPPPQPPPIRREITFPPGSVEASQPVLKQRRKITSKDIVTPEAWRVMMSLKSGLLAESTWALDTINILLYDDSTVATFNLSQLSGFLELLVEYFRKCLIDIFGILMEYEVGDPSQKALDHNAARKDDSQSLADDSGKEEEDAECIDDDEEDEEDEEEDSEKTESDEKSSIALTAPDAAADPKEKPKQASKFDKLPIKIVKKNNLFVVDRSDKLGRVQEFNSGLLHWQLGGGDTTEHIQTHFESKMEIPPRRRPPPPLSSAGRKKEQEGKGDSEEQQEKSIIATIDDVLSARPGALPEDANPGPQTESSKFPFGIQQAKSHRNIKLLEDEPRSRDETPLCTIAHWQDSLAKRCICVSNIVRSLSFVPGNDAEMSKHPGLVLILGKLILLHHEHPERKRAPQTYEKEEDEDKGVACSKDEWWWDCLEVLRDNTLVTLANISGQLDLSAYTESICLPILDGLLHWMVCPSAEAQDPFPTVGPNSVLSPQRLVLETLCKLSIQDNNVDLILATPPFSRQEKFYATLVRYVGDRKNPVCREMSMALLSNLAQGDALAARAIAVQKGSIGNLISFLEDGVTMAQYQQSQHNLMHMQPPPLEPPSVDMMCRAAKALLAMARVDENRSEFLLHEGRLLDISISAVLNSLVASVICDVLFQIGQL
UniProt Q92624: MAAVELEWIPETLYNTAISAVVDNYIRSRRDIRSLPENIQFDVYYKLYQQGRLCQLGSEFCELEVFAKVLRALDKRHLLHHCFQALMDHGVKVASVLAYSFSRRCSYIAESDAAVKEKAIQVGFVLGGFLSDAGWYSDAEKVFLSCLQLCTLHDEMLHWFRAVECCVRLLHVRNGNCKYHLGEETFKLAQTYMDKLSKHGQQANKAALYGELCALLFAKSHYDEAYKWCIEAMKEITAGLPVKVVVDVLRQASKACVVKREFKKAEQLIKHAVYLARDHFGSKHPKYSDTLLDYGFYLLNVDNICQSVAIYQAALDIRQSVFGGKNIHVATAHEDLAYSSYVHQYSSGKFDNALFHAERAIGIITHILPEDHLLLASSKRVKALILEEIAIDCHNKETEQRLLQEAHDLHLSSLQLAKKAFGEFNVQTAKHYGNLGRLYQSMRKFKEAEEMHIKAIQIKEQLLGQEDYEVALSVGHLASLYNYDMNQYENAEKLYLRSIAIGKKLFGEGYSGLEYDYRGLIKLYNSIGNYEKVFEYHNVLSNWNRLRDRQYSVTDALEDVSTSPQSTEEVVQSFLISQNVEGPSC
UniProt Q7Z5H3: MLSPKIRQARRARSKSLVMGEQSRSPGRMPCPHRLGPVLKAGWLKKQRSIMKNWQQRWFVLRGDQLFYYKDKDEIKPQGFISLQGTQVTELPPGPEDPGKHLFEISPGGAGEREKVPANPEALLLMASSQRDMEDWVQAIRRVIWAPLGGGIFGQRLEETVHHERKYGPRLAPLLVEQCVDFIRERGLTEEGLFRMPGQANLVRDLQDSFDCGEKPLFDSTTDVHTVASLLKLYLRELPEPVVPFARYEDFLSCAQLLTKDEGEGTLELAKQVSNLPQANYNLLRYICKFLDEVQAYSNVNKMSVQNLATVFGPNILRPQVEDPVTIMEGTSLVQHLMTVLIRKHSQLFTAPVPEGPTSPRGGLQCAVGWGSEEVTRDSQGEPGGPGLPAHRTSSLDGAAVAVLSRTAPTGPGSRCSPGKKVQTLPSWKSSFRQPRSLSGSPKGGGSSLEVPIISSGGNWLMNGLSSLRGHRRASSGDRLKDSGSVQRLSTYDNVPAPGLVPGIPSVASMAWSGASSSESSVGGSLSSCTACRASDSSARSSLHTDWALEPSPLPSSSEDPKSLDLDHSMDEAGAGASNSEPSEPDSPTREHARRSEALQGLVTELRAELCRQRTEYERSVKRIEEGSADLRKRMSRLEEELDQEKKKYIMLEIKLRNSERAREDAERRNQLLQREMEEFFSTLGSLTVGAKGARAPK
UniProt O00192: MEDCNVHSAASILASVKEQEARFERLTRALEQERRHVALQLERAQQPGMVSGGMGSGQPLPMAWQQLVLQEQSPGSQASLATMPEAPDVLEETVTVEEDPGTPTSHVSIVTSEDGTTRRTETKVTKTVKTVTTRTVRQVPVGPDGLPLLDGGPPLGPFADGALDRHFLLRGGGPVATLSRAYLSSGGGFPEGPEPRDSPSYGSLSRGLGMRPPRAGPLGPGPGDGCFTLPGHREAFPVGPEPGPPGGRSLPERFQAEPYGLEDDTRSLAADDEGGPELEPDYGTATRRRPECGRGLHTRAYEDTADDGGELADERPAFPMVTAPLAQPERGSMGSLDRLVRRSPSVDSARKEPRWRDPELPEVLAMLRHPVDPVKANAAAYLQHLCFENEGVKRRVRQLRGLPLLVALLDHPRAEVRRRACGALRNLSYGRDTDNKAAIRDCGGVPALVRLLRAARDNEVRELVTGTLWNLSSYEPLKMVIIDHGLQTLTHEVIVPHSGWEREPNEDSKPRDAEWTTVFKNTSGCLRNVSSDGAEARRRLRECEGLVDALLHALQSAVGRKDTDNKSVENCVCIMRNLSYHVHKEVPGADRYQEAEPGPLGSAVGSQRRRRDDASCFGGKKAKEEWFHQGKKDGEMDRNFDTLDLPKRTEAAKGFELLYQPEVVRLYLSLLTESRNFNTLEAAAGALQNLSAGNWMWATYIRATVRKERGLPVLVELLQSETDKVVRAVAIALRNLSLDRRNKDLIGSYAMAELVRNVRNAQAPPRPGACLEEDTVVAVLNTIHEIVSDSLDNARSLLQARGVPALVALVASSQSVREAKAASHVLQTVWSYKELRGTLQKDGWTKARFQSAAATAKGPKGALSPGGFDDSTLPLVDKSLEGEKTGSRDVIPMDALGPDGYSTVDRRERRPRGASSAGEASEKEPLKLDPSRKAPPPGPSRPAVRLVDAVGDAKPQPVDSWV
UniProt Q9P2N2: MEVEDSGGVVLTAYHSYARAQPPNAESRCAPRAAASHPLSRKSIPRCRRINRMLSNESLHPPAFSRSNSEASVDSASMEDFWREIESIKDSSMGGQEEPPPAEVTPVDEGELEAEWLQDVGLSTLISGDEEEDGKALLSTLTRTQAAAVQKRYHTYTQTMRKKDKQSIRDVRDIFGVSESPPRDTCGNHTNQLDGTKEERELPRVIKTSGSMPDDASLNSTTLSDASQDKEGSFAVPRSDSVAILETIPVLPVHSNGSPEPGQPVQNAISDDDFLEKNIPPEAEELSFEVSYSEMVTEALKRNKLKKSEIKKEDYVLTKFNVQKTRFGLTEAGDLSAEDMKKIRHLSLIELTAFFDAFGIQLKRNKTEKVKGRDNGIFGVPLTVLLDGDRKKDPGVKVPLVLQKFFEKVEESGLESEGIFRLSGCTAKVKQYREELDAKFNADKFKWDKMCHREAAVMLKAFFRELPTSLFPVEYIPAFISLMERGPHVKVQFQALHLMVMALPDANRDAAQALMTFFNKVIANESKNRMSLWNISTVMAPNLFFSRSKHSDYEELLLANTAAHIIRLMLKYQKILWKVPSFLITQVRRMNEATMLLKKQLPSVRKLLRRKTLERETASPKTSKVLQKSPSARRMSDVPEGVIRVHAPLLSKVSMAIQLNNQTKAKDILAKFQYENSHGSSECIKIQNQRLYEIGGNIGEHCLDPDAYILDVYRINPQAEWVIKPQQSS
UniProt P84077: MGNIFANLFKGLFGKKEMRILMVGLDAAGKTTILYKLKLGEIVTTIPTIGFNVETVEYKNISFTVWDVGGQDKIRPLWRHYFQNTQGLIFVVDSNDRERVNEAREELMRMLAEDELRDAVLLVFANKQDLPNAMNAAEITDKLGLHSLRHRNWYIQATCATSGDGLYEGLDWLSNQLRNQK

Key:
Assay in all cases: log2 fold change, soluble protein after heating vs DMSO (PISA); higher = thermal stabilisation; K562 lysate, 10 uM; active = over 0.2 and 3.5 SD of the protein, either way, in both replicates (recomputed)
[1] = compound: C1=CC=C(C=C1)[C@H](COC2=CC3=C(C=C2)NC(=O)N3)NC(=O)C4=CC=CN(C4=O)CC5=CC(=C(C=C5)F)F
How it was run: (§1)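 The values are log-two fold changes in thermal stability compared with solvent controls and come from duplicates. They were obtained by TMTpro 16plex LC-MS/MS, with channel sums equalised, on the supernatant after 21,000xg for 90 min. That supernatant came from crude K562 extract at 1 mg/mL protein treated with 10 μM compound for 30 min, heated for 3 min across 48°C-58°C, pooled and brought to 0.5% NP-40 at 4°C.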

[2] = compound: CC1=C(SC2=C1C(=N[C@H](C3=NN=C(N32)C)CC(=O)N)C4=CC=C(C=C4)Cl)C
How it was run: as §1

[3] = compound: CC1=C2C(=CC=C1)N=C(N(C2=O)C3=CC=CC=C3C)CN4C=NC5=C(N=CN=C54)N
How it was run: as §1

[4] = compound: Cc1sc2c(c1C)C(c1ccc(Cl)cc1)=N[C@@H](CC(=O)OC(C)(C)C)c1nnc(C)n1-2
How it was run: as §1

[5] = compound: c1ccc([C@@H]2C[C@H]2NC2CCNCC2)cc1
How it was run: as §1

Measured: log2 fold change

ARL3 (UniProt P36405)
inactive: [1] -0.003 | [2] 0.004 | [3] -0.01 | [4] 0.004 | [5] 0.006

ARMCX5 (UniProt Q6P1M9)
inactive: [1] 0.021 | [2] -0.07 | [3] 0.057 | [4] 0.036 | [5] -0.03

ARL6IP5 (UniProt O75915)
inactive: [1] -0.038 | [2] -0.068 | [3] -0.018 | [4] -0.003 | [5] 0.083

ARFIP2 (UniProt P53365)
inactive: [1] 0.041 | [2] -0.031 | [3] 0.018 | [4] -0.104 | [5] 0.017

ARHGEF1 (UniProt M0QZR4)
inactive: [1] -0.046 | [2] 0.006 | [3] -0.017 | [4] -0.017 | [5] 0.004

ARMC1 (UniProt Q9NVT9)
inactive: [1] 0.003 | [2] 0.017 | [3] 0.025 | [4] 0 | [5] -0.01

ARL8A (UniProt Q96BM9)
inactive: [1] 0.038 | [2] -0.02 | [3] -0.157 | [4] 0.093 | [5] 0.1

AP5Z1 (UniProt O43299)
inactive: [1] 0.044 | [2] 0.027 | [3] 0.093 | [4] -0.151 | [5] -0.058

ARHGEF2 (UniProt Q92974)
inactive: [1] 0.023 | [2] -0.007 | [3] 0.034 | [4] 0.008 | [5] 0.05

ARRB1 (UniProt P49407)
inactive: [1] 0.039 | [2] 0.018 | [3] 0.018 | [4] 0.021 | [5] -0.026

Pulled one by one from the list above, 4 records:
ARMC1 (UniProt Q9NVT9)
inactive: [1] 0.003 | [2] 0.017 | [3] 0.025 | [4] 0 | [5] -0.01

ARRB1 (UniProt P49407)
inactive: [1] 0.039 | [2] 0.018 | [3] 0.018 | [4] 0.021 | [5] -0.026

ARL8A (UniProt Q96BM9)
inactive: [1] 0.038 | [2] -0.02 | [3] -0.157 | [4] 0.093 | [5] 0.1

ARHGEF1 (UniProt M0QZR4)
inactive: [1] -0.046 | [2] 0.006 | [3] -0.017 | [4] -0.017 | [5] 0.004

Further records follow.

ARHGAP1 (UniProt Q07960)
inactive: [1] 0.052 | [2] 0.02 | [3] -0.008 | [4] 0.003 | [5] -0.017

APOBEC3C (UniProt Q9NRW3)
inactive: [1] -0.003 | [2] 0.032 | [3] 0.013 | [4] 0.014 | [5] -0.062

AP4M1 (UniProt O00189)
inactive: [1] -0.03 | [2] -0.002 | [3] 0.046 | [4] 0.062 | [5] -0.093

APOBEC3D (UniProt Q96AK3)
inactive: [1] 0.023 | [2] 0.066 | [3] 0.067 | [4] 0.056 | [5] 0.085

AP4S1 (UniProt Q9Y587)
inactive: [1] 0.003 | [2] -0.005 | [3] 0.101 | [4] 0.017 | [5] -0.029

ARID1B isoform 3 (UniProt Q8NFD5)
inactive: [1] 0.015 | [2] 0.008 | [3] 0.004 | [4] 0.061 | [5] 0.063

APOC1 (UniProt P02654)
inactive: [1] 0.04 | [2] 0.06 | [3] -0.082 | [4] -0.015 | [5] 0.128

ARID4B (UniProt Q4LE39)
inactive: [1] -0.009 | [2] -0.019 | [3] -0.003 | [4] -0.021 | [5] 0.035

APOA1 (UniProt P02647)
inactive: [1] 0.006 | [2] -0.183 | [3] -0.036 | [4] -0.136 | [5] -0.06

ARHGAP4 isoform 2 (UniProt P98171)
inactive: [1] 0.022 | [2] 0.013 | [3] 0.116 | [4] -0.023 | [5] 0.002

ARPC3 (UniProt O15145)
inactive: [1] 0.023 | [2] -0.032 | [3] -0.058 | [4] 0.03 | [5] 0.084

ARPC4 isoform 3 (UniProt P59998)
inactive: [1] -0.022 | [2] -0.018 | [3] 0 | [4] 0.003 | [5] -0.021

APBA2 (UniProt Q99767)
inactive: [1] -0.014 | [2] 0.033 | [3] 0.017 | [4] -0.007 | [5] -0.106

ARSB (UniProt P15848)
inactive: [1] 0.163 | [2] 0.102 | [3] 0.006 | [4] 0.003 | [5] 0.023

ARHGAP21 (UniProt Q5T5U3)
inactive: [1] 0.031 | [2] 0.117 | [3] 0.031 | [4] 0.008 | [5] 0.124

ARFIP1 (UniProt P53367)
inactive: [1] -0.029 | [2] 0.006 | [3] -0.002 | [4] -0.064 | [5] -0.01

APOC3 (UniProt P02656)
inactive: [3] -0.473 | [4] -0.086

AQP1 (UniProt P29972)
inactive: [5] -0.008

AP5B1 (UniProt Q2VPB7)
inactive: [1] 0.079 | [2] -0.023 | [4] -0.044 | [5] -0.003

ARFGAP1 (UniProt Q8N6T3)
inactive: [1] 0.037 | [2] -0.091 | [3] 0.149 | [4] -0.081 | [5] -0.127

APOD (UniProt P05090)
inactive: [4] 0.105 | [5] -0.137

ARHGAP12 isoform 3 (UniProt Q8IWW6)
inactive: [3] 0.071 | [4] 0.037 | [5] -0.039

ARL6IP4 isoform 2 (UniProt Q66PJ3)
inactive: [5] -0.059

APOBEC3B (UniProt Q9UH17)
inactive: [3] 0.056 | [4] -0.107 | [5] -0.051

APPBP2 (UniProt Q92624)
inactive: [1] -0.052 | [2] 0.067 | [5] 0.073

APBA3 (UniProt O96018)
inactive: [3] -0.1

APH1A (UniProt Q96BI3)
inactive: [1] -0.032 | [2] 0.066 | [5] 0.122

ARL5B (UniProt Q96KC2)
inactive: [1] 0.037 | [2] -0.083 | [3] 0.003 | [5] 0.019

APBA1 (UniProt Q02410)
inactive: [1] -0.045 | [2] -0.036 | [5] 0.055

APOL1 isoform 2 (UniProt O14791)
inactive: [4] 0.081 | [5] 0.085

ARMC7 (UniProt Q9H6L4)
inactive: [3] 0.223 | [4] 0.006

APTX isoform 4 (UniProt Q7Z2E3)
inactive: [5] -0.048

ARMC8 isoform 6 (UniProt Q8IUR7)
inactive: [5] -0.067

ARL6IP4 isoform 4 (UniProt Q66PJ3)
inactive: [3] 0.058 | [5] -0.194

ARHGAP45 isoform 2 (UniProt Q92619)
inactive: [1] -0.086 | [2] -0.042 | [3] -0.007 | [4] 0.017 | [5] 0.077

ART4 (UniProt Q93070)
inactive: [1] 0.069 | [2] 0.014 | [3] 0.074 | [5] -0.016

ARHGAP22 isoform 2 (UniProt Q7Z5H3)
inactive: [4] -0.143

ARAP3 (UniProt Q8WWN8)
inactive: [4] -0.004 | [5] 0.082

ARRDC1-AS1 (UniProt Q9H2J1)
inactive: [5] 0.16

ARSK (UniProt Q6UWY0)
inactive: [3] -0.113 | [4] -0.016 | [5] 0.01

ARVCF (UniProt O00192)
inactive: [3] 0.192 | [4] -0.073 | [5] -0.107

ARHGAP24 (UniProt Q8N264)
inactive: [3] 0.419 | [5] 0.006

ARHGAP28 (UniProt Q9P2N2)
inactive: [1] -0.028 | [2] -0.025 | [4] 0.009

API5 isoform 1 (UniProt Q9BZZ5)
inactive: [5] 0.19

ARID4A (UniProt P29374)
inactive: [3] 0.072 | [4] 0.017 | [5] 0.15

ARMC10 isoform 2 (UniProt Q8N2F6)
inactive: [4] -0.056

APP (UniProt P05067)
inactive: [1] -0.006 | [2] -0.024 | [4] 0.109 | [5] -0.03

APLNR (UniProt P35414)
inactive: [5] -0.069

ARL5A (UniProt Q9Y689)
inactive: [3] 0.115 | [4] -0.105 | [5] 0.073

ARHGEF2 (UniProt V9GYF0)
inactive: [3] 0.098 | [4] 0.105

ARMC5 (UniProt Q96C12)
inactive: [5] 0.06

APOBEC3F (UniProt Q8IUX4)
inactive: [1] 0.072 | [2] 0.007 | [3] -0.024 | [5] 0.189

APOBR (UniProt Q0VD83)
inactive: [1] -0.041 | [2] 0.016 | [3] -0.039 | [4] -0.047 | [5] -0.015

ARF1 (UniProt P84077)
inactive: [5] 0.116

ARHGEF40 (UniProt Q8TER5)
inactive: [4] -0.068

AP5S1 (UniProt Q9NUS5)
inactive: [4] 0
